This note sets out measurements from patent US9855245B2, “Methods for improving lipid profiles using atrasentan” (AbbVie Inc., priority 2013, dated 2018).

Data set [1] deals with subjects with type 2 diabetes and nephropathy. As to the kind of experiment: Example 1: Phase 2b randomized, double-blind, placebo-controlled 12-week clinical study.
Data set [2] shares this test system. As to the kind of experiment: Example 2: Phase 2b randomized, double-blind, placebo-controlled 12-week study conducted in Japan.

In the case of `CCCCN(CCCC)C(=O)CN1C[C@H](c2ccc3c(c2)OCO3)[C@@H](C(=O)O)[C@@H]1c1ccc(OC)cc1` [Atrasentan, (2R,3R,4S)-4-(1,3-benzodioxol-5-yl)-1-[2-(dibutylamino)-2-oxoethyl]-2-(4-methoxyphenyl)pyrrolidine-3-carboxylic acid], the “Glucose, Difference (95% CI) from placebo” value in data set [1] (0.75 mg/day) is −8.8 (−49.85, 32.26) mg/dL; in data set [1] (1.25 mg/day), −8.2 (−48.64, 32.34) mg/dL; in data set [2] (0.75 mg/day), −3.1 (−36.04, 29.92) mg/dL; in data set [2] (1.25 mg/day), −9.0 (−42.41, 24.48) mg/dL. Moreover, the “Glucose, Final On-Treatment Visit Mean (SD)” value in data set [1] (0.75 mg/day) was 157.9 (76.55) mg/dL; in data set [1] (1.25 mg/day) it was 158.5 (72.59) mg/dL; in data set [2] (0.75 mg/day), 132.1 (37.13) mg/dL; in data set [2] (1.25 mg/day) it was 124.3 (33.10) mg/dL. The “Glucose, LS Mean Change from Baseline (SE)” value is reported as −4.3 (10.74) mg/dL in data set [1] (0.75 mg/day), −3.7 (10.29) mg/dL in data set [1] (1.25 mg/day), −3.3 (10.39) mg/dL in data set [2] (0.75 mg/day) and −9.2 (10.67) mg/dL in data set [2] (1.25 mg/day).
